In PMC4546463 one finds binding data, which are given here for one substance.

The chains behind the UniProt entries cited, without tags or fusion partners.
UniProt P13569: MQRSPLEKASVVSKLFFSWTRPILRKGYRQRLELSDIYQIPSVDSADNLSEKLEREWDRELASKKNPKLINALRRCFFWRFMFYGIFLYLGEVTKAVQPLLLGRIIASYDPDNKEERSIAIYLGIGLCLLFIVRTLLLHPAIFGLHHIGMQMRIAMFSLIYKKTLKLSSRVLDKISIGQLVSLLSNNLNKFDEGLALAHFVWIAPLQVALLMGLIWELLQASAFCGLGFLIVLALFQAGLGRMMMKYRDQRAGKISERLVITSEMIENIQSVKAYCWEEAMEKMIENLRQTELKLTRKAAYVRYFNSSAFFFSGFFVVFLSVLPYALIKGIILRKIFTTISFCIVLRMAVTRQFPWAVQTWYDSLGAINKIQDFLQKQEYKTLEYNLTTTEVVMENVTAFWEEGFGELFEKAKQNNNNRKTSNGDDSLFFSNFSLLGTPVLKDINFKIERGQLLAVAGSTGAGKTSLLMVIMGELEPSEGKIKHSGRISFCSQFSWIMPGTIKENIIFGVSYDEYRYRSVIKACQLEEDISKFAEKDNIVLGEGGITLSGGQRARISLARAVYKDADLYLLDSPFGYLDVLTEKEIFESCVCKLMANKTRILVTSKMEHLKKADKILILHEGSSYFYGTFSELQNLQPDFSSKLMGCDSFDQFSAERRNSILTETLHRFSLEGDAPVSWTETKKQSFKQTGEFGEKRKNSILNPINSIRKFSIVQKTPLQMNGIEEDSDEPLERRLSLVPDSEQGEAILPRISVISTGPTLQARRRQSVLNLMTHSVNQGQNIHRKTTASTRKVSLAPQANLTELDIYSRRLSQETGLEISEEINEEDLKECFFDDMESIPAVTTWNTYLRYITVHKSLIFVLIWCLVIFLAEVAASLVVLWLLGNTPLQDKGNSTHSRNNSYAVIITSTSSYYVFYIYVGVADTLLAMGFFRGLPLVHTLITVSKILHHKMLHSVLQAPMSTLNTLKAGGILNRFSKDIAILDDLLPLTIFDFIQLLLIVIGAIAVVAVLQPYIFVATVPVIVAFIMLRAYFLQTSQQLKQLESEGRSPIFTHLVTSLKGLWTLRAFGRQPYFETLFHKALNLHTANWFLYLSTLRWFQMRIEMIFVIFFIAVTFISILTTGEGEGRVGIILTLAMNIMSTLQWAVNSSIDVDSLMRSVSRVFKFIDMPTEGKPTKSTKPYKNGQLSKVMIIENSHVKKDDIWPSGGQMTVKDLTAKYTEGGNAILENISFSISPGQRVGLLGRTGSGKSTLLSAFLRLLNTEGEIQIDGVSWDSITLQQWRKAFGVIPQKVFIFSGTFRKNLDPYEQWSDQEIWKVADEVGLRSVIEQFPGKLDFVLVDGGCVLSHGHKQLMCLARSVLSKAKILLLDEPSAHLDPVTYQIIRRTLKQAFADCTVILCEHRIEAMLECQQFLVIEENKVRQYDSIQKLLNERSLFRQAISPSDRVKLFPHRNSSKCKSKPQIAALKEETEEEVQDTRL
UniProt Q07812: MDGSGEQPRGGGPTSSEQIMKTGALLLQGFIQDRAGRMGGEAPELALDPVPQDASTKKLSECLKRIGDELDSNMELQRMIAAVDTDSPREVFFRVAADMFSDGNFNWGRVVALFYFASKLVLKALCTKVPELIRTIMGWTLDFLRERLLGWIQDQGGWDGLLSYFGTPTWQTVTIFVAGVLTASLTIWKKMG

These are yes or no findings as the source states them, for the method shown. Binding seen in cells or lysates may run through a third protein.

This test has as its target Cystic Fibrosis Trans membrane Conductance Regulator (human (endogenous in LNCaP)) (UniProt P13569). Briefly: proximity ligation; Olink PLA kit in LNCaP cells deprived of androgen (DMSO) or with 2.5 nM R1881; rabbit anti-LMTK2 with mouse anti-AR; rabbit anti-BAX with mouse anti-CFTR as negative control; signals per nucleus counted with Image-J.

For the substance “Bcl2 associated protein-X (from UniProt Q07812 1-192)”, the binding entry was “no binding”.
